Test: general procedure: solution-phase peptide synthesis; isobutyl chloroformate/N-methylmorpholine; DCC/N-hydroxysuccinimide; thiocarbony
Details: for conjugation yield: conjugation step

Substance | step yield (coupling step) | step yield (late stage modification step) | conjugation yield [% yield]
ABAS-L-Asp-β-Ala-ε-L-Lys(α-S-THP-mercaptoacetyl)-Glu-dme [ABAS-L-Asp-β-Ala-ε-L-Lys(α-S-THP-mercaptoacetyl)-Glu-dme] | 17% yield | 86% yield | 
ABAS-L-Asp-L-Lys(ε-AAA(α-S-THP-mercaptoacetyl)-Glu(γ-t- Bu)-dmen) |  | 91% | 
ABAS-L-Asp-L-Lys p-amino-Phe(α-S-THP-mercaptoacetyl)-Gly-dmen Thiourea |  |  | 10
Asp-L-Lys(ε-γ-L-Glu(N-α-S-THP-mercaptoacetyl)-Gly-dmen) |  | 34% | 
ABAS-L-Asp-L-Lys(ε-AAA(N-α-S-THP-mercaptoacetyl)-Glu(γ- t-Bu)-dmen) |  |  | 46
N-Boc-L-Asp(β-OtBu)-L-Lys(ε-γ-L-Glu(N-α-S-THP-mercaptoacetyl)-Gly-dmen)-OtBu | 88% |  | 
